Experimental data: PubChem BioAssay AID1259425 (University of Nebraska Medical Center, 2018)
This is a random part of about 14,000 deposited reagents. The record does not give: the time to read-out.

Screen: 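Seek colon cancer weak points whose silencing resembles KSR1 loss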 (primary screen)
Cells: HCT116 human colon cancer cells
Knock-down reagent: siRNA pool against human genes, 50 nM siRNA
Measurement: 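mRNA of six signature genes measured together by branched-DNA assay after 50 nM siRNA pool, blank removed, divided by geometric mean of two housekeeping genes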
Reading the numbers: BNIP3L mRNA: higher = more BNIP3L transcript after knockdown; NDRG1 mRNA: higher = more NDRG1 transcript after knockdown; BNIP3 mRNA: higher = more BNIP3 transcript after knockdown; ALDOC mRNA: higher = more ALDOC transcript after knockdown; ACSL5 mRNA: higher = more ACSL5 transcript after knockdown

| gene | BNIP3L mRNA, set 1 | NDRG1 mRNA, set 1 | BNIP3 mRNA, set 1 | ALDOC mRNA, set 1 | ACSL5 mRNA, set 1 |
| --- | --- | --- | --- | --- | --- |
| PRDX3 | 0.11 | 0.218 | 0.273 | 0.0185 | 0.179 |
| ELN | 0.184 | 0.369 | 0.252 | 0.0289 | 0.118 |
| PTENP1 | 0.0577 | 0.127 | 0.285 | 0.0105 | 0.221 |
| DBF4B | 0.128 | 0.193 | 0.252 | 0.0533 | 0.266 |
| SGSM3 | 0.0932 | 0.126 | 0.207 | 0.0238 | 0.138 |
| VTI1B | 0.0415 | 0.881 | 0.201 | 0.028 | 0.0832 |
| HSPB2 | 0.154 | 0.353 | 0.227 | 0.0136 | 0.148 |
| ADAMTS15 | 0.0902 | 0.233 | 0.187 | 0.0424 | 0.051 |
| AKR1C2 | 0.0695 | 0.287 | 0.244 | 0.0438 | 0.125 |
| ZIC3 | 0.0665 | 0.142 | 0.241 | 0.000523 | 0.213 |
| MNAT1 | 0.107 | 0.401 | 0.239 | 0.0233 | 0.224 |
| UBE3C | 0.098 | 0.0667 | 0.292 | 0.0331 | 0.0829 |
| SPATA31C2 | 0.145 | 0.787 | 0.511 | 0.0253 | 0.225 |
| ESRRG | 0.0816 | 0.07 | 0.218 | 0.0116 | 0.0904 |
| DSC3 | 0.0404 | 0.053 | 0.258 | 0.0191 | 0.344 |
| TCP11 | 0.125 | 0.299 | 0.297 | 0.0473 | 0.0827 |
| OPHN1 | 0.0769 | 0.0619 | 0.188 | 0.0226 | 0.11 |
| ZNF532 | 0.127 | 0.0663 | 0.285 | 0.0155 | 0.19 |
| PXMP2 | 0.0938 | 0.208 | 0.449 | 0.00987 | 0.215 |
| CTNNAL1 | 0.137 | 0.136 | 0.315 | 0.0189 | 0.127 |

Ordered by “BNIP3L mRNA, set 1” (descending): some entries from above
| gene | BNIP3L mRNA, set 1 | NDRG1 mRNA, set 1 | BNIP3 mRNA, set 1 | ALDOC mRNA, set 1 | ACSL5 mRNA, set 1 |
| --- | --- | --- | --- | --- | --- |
| SPATA31C2 | 0.145 | 0.787 | 0.511 | 0.0253 | 0.225 |
| MNAT1 | 0.107 | 0.401 | 0.239 | 0.0233 | 0.224 |
| UBE3C | 0.098 | 0.0667 | 0.292 | 0.0331 | 0.0829 |
